Measured values published in PubChem BioAssay AID504467 (National Center for Advancing Translational Sciences (NCATS), 2011).
In all, about 330,000 compounds went through this assay and about 7,700 (2.3%) were called active. The inconclusive results got no clear call from the source; some entries with a clear call stand among them for comparison. Calls come from the whole dose curve; as a rule, active = well fitted inhibition curve with a large enough effect; inconclusive = small, poorly fitted or top-dose-only effect, or effect the other way; inactive = flat fitted curve, though single readings scatter. Potencies of inconclusive entries are doubtful fits and often do not repeat.

Experiment: qHTS screen for small molecules that inhibit ELG1-dependent DNA repair in human embryonic kidney (HEK293T) cells expressing luciferase-tagged ELG1; note: nearly all actives have a fitted effect of over 55% in size
Settings: HEK293T ELG1-luciferase reporter, luminescence, 16 h, DNA damage induced by 5-fluorouridine; activity change, negative = inhibition: at 46.1 µM (top of the series)
Procedure, shortened: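 Quantitative HTS, concentration-response format. 2,000 cells/well co-treated with 5-fluorouridine and compound, 16 hr in 5% CO2 at 37 °C; ONE-Glo luminescence read after 30 min.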
% is set by controls: 0 for no effect and ±100 for the full control effect; potency is the fitted concentration of half-maximal effect.

SMILES	Potency	activity change, negative = inhibition
CN1CCN(Cc2ccc(Sc3ccc(Cl)cc3)c([N+](=O)[O-])c2)CC1	inconclusive: 0.92 µM [inhibitor, partial curve, poor fit]	–
COc1ccc(OC)c(NC(=O)CCN2CCCC(C)C2)c1 (stereo not given)	–	inactive: 4.5%
CCOc1ccc(S(=O)(=O)Nc2cccc(C(=O)NCC3CCCO3)c2)cc1 (stereo not given)	–	inactive: -6.05%
Cc1ccc2nsnc2c1NC(=O)COc1ccccc1F	–	inactive: -3.79%
COc1ccc(C(=O)N=C2SC3CS(=O)(=O)CC3N2c2ccc(N(C)C)cc2)cc1OC (stereo not given)	inconclusive: 2.06 µM [inhibitor, partial curve, poor fit]	–
CCCCc1n[nH]c2c1/C(=N/O)CC(c1ccccc1)C2 (stereo not given)	inconclusive: 18.4 µM [inhibitor, single point]	–
CCOC(=O)O[C@]1(C(=O)COC(=O)CC)CC[C@H]2[C@@H]3CCC4=CC(=O)C=C[C@]4(C)[C@H]3[C@@H](O)C[C@@]21C	–	inactive: 6.8%
Cc1cccc(OCCCC(=O)Nc2nc3ccccc3[nH]2)c1	inconclusive: 13 µM [activator, partial curve]	–
Cc1ccc([C@H]2C(C(=O)O)=CC[C@@H](c3ccc(Cl)cc3)N2S(=O)(=O)c2ccc(C)cc2)cc1	inconclusive: 20.6 µM [inhibitor, single point]	–
O=C(CCCn1c(SCc2ccccc2F)nc2ccccc2c1=O)NCC1CCCO1 (stereo not given)	inconclusive: 16.4 µM [inhibitor, partial curve]	–
O=C(Nc1nccs1)c1ccc2ccccc2n1	inconclusive: 4.11 µM [activator, full curve]	–
COc1ccc(NC(=S)NC(=O)C2CCCCC2)cc1	inconclusive: 8.2 µM [inhibitor, partial curve]	–
Nc1nnc(CC(=O)N/N=C/c2cc([N+](=O)[O-])cc(Br)c2O)s1	–	inactive: -3.42%
CCOc1cc(/C=C2\C(=O)ON=C2c2ccccc2)ccc1OC	inconclusive: 20.6 µM [activator, single point]	–
O=C(/C=C/c1ccccc1)Nc1nnc(SCC(=O)c2ccc3ccccc3c2)s1	inconclusive: 20.6 µM [activator, single point]	–
COc1ccc(CNC(=O)CN2C(=O)NC(Cc3ccccc3)(c3ccccc3)C2=O)cc1OC (stereo not given)	–	inactive: -15.9%
CCC(=O)N1CCc2cc(Br)cc(S(=O)(=O)N3CCC(C(=O)NCCCOC(C)C)CC3)c21	active: 1.64 µM	–
CCOc1ccc(C2C(C(=O)O)CCC(=O)N2C2CCCCC2)cc1 (stereo not given)	–	inactive: 10.5%
COc1ccc(C(=O)NNC(=O)C23CC4CC(CC(C4)C2)C3)cc1OC	–	inactive: 0.563%
c1ccc2nc3c(nc2c1)[nH]c1ccccc13	inconclusive: 2.59 µM [activator, full curve]	–

2 entries drawn at random from those above:
SMILES	Potency	activity change, negative = inhibition
Cc1ccc([C@H]2C(C(=O)O)=CC[C@@H](c3ccc(Cl)cc3)N2S(=O)(=O)c2ccc(C)cc2)cc1	inconclusive: 20.6 µM [inhibitor, single point]	–
O=C(Nc1nccs1)c1ccc2ccccc2n1	inconclusive: 4.11 µM [activator, full curve]	–
